{"source": "patent US20240269196A1", "about": "“RESPIRATORY TREATMENTS USING SALMONID OIL COMPOSITIONS” (Hofseth Biocare ASA, priority 2020, published 2024)", "tested_on": "CD11b on eosinophils (PMNL surface)", "experiment": "CD11b (integrin) upregulation assay, CCL11-stimulated PMNL, flow cytometry", "type": "cell-based, human", "conditions": "Example 1; 3 μg/mL ApoA-IV; at optimum around 2-4 nM CCL11", "procedure": "(§1) PMNL samples were pretreated with 3 μg/mL ApoA-IV (positive control), 100 μg/mL SO, and formulation vehicle (negative control) for 30 minutes and incubated with serial dilutions of CCL11 for 30 minutes at 37° C. Samples were stained with anti-CD16-PE-Cy5 and anti-CD11b-PE (ICRF44) antibodies. Eosinophils were identified as CD16 negative cells. CD11b upregulation was analyzed by flow cytometry.\nA precondition for eosinophil migration is upregulation of adhesion molecules such as the αmβ2 integrins (CD11b/CD18).\nas §1, with “with” for “with 3 μg/mL ApoA-IV (positive control),”, “SO, heat, acid and base treated SO, krill oil, standard 18/12 fish oil,” for “SO,”", "note": "Some results were stated once for a whole list of compounds, not compound by compound."}
{"molecule": "Apolipoprotein A-IV (protein, UniProt P06727 21-396, looked up, positive control protein) Apolipoprotein A-IV: EVSADQVATVMWDYFSQLSNNAKEAVEHLQKSELTQQLNALFQDKLGEVNTYAGDLQKKLVPFATELHERLAKDSEKLKEEIGKELEELRARLLPHANEVSQKIGDNLRELQQRLEPYADQLRTQVSTQAEQLRRQLTPYAQRMERVLRENADSLQASLRPHADELKAKIDQNVEELKGRLTPYADEFKVKIDQTVEELRRSLAPYAQDTQEKLNHQLEGLTFQMKKNAEELKARISASAEELRQRLAPLAEDVRGNLRGNTEGLQKSLAELGGHLDQQVEEFRRRVEPYGENFNKALVQQMEQLRQKLGPHAGDVEGHLSFLEKDLRDKVNSFFSTFKEKESQDKTLSLPELEQQQEQQQEQQQEQVQMLAPLES", "values": [{"measurement": "reduction of the presence of CD11b molecules on the cell surfaces", "value": "20-30%"}]}
